Data as given in paper PMC5303827 (Nature Communications, 2017).
These are yes or no findings as the source states them, for the method shown.

Protein sequences, listed by entry. Tags and fused reporters are not part of them.
UniProt P54860: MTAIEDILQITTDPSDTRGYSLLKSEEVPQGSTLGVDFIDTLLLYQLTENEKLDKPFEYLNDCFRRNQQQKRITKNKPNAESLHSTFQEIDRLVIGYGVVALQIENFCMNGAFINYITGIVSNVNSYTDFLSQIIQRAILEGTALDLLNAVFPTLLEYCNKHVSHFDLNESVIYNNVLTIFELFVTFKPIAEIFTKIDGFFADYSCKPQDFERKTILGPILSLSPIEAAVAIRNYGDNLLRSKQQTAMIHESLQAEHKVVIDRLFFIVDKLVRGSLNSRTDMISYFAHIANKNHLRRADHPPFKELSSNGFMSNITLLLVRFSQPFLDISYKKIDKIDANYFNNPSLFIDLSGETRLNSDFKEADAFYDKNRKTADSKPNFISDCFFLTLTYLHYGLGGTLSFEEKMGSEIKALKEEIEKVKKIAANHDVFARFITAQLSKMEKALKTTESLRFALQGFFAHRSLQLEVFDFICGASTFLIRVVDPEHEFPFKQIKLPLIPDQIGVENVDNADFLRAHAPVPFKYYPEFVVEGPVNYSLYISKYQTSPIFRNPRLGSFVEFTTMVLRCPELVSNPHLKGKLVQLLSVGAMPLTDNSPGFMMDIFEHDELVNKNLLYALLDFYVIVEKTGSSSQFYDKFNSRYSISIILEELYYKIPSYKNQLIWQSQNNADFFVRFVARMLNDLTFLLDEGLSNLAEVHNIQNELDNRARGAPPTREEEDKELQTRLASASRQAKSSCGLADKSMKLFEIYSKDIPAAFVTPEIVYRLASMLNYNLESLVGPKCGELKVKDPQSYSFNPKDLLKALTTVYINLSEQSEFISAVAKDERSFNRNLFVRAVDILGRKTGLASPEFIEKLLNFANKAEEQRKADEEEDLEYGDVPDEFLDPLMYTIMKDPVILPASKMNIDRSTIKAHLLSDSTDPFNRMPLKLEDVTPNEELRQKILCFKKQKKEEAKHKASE

Biological target: GST-Ufd2p (S. cerevisiae) (UniProt P54860)
Assay: pull-down; equal amounts of GST-Ufd2p and untagged Ufd2p mixed with increasing amounts of Lys29-linked Ubn-GFP; GST beads; blot with anti-Ufd2; both purified

## GST-Ufd2p (from UniProt P54860 1-961) (enzyme)
  binding: no binding
